In publication PMC6465301, “Enzyme-responsive progelator cyclic peptides for minimally invasive delivery to the heart post-myocardial infarction” (Nature Communications, 2019) one finds Catheter injectability data, which are given here for two substances.

The nature of this data set: In vitro catheter injection (MyoStar transendocardial catheter). The conditions noted are these: 10 mM in 1× DPBS pH 7.4, 0.6 mL min−1, 27 G inner nitinol tubing of MyoStar catheter, 37 °C water bath; cyclic progelators 2 mol% labeled, incubation in catheter loop 60 min.

For the substance Ac-KLDLKLDLKLDL-NH2 [KLDL], the Catheter injectability result is recorded as “caused immediate catheter clogging”.

In the case of Ac-KFDFKFDFKFDF-NH2 [KFDF], the Catheter injectability entry is given as “caused immediate catheter clogging”.
